For 3 substances, binding results are on record in PMC11040007.

Protein sequences, listed by entry. Tags and fused reporters are not part of them. Lines headed by an entry give the natural chain unless they say otherwise; changes in a name come on top. Chains listed by the source or under a name are the forms on record and can include a tag or linker.
UniProt Q15717: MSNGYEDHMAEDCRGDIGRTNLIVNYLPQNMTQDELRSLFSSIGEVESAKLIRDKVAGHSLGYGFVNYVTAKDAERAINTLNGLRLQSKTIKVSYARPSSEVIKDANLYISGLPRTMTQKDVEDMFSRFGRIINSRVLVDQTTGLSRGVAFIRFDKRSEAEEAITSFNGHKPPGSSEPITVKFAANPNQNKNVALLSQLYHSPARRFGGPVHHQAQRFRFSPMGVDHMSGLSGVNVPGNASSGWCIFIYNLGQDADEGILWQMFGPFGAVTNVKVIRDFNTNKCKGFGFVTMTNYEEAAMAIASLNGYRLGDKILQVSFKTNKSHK
GFP-HuR containing a glycine (G) to aspartate (D) mutation at the 224 position (Q15717, form named): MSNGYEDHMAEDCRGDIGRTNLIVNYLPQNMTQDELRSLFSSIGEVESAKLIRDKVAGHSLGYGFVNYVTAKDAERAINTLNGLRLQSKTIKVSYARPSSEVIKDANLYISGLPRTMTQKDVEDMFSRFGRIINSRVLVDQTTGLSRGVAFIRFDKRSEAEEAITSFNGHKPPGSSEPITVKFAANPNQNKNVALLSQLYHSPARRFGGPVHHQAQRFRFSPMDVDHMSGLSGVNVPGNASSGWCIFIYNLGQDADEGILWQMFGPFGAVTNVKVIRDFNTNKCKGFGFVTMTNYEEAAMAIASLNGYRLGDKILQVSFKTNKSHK
UniProt P70372: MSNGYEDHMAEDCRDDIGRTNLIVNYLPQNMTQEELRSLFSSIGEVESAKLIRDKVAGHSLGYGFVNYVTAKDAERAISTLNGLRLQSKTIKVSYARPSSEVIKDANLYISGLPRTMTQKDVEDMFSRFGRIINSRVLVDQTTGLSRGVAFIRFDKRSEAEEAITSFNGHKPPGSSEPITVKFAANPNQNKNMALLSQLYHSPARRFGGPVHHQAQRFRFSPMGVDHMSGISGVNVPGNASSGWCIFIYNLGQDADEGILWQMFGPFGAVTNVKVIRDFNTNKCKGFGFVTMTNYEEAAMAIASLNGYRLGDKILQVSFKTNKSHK

Experiment [1] addresses T1, Tankyrase-1 (mouse (endogenous in C2C12)) (UniProt Q6PFX9).
T1 sequence: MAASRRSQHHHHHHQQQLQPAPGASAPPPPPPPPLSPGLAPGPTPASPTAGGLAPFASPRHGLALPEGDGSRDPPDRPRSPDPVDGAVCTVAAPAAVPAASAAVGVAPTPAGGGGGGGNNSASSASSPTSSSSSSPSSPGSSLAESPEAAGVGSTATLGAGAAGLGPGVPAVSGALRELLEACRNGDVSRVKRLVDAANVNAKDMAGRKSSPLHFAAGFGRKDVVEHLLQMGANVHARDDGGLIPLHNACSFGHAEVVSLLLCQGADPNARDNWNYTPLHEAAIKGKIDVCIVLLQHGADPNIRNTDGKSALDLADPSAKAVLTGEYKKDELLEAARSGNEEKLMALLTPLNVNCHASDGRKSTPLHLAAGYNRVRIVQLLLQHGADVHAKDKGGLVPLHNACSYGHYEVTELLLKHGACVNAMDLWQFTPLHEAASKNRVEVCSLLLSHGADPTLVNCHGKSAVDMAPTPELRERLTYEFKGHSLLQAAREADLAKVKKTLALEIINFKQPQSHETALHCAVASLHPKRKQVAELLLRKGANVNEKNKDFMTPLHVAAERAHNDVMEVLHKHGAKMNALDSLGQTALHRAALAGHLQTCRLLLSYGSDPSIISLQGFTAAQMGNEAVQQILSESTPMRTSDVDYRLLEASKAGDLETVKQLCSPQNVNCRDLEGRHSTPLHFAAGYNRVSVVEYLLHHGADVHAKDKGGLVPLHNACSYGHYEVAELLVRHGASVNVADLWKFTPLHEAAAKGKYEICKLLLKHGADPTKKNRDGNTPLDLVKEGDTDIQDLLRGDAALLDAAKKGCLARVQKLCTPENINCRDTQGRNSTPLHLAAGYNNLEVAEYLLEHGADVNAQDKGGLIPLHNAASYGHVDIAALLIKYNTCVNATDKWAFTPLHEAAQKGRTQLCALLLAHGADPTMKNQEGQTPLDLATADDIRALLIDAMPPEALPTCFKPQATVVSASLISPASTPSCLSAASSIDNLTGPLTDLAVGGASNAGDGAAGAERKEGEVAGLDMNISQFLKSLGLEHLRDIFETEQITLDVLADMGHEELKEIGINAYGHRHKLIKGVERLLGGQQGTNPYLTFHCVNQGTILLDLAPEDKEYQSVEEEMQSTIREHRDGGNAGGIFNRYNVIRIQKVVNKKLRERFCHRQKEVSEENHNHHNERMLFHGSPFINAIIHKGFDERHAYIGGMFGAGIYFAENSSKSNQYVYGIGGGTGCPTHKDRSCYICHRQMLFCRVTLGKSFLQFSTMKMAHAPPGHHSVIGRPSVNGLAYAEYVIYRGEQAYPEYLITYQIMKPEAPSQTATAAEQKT
Put plainly: co-IP; anti-TNKS1 or IgG antibodies on lysates of differentiating C2C12 cells expressing GFP, GFP-HuR^WT or GFP-HuR^G224D; protein A/G magnetic beads; washes with 25 mM Tris-HCl pH 8.0, 650 mM NaCl, 0.05% Tween-20; western blot.

In experiment [2] the target is T2, transportin-2 (mouse (endogenous in C2C12)) (UniProt Q99LG2).
T2 sequence: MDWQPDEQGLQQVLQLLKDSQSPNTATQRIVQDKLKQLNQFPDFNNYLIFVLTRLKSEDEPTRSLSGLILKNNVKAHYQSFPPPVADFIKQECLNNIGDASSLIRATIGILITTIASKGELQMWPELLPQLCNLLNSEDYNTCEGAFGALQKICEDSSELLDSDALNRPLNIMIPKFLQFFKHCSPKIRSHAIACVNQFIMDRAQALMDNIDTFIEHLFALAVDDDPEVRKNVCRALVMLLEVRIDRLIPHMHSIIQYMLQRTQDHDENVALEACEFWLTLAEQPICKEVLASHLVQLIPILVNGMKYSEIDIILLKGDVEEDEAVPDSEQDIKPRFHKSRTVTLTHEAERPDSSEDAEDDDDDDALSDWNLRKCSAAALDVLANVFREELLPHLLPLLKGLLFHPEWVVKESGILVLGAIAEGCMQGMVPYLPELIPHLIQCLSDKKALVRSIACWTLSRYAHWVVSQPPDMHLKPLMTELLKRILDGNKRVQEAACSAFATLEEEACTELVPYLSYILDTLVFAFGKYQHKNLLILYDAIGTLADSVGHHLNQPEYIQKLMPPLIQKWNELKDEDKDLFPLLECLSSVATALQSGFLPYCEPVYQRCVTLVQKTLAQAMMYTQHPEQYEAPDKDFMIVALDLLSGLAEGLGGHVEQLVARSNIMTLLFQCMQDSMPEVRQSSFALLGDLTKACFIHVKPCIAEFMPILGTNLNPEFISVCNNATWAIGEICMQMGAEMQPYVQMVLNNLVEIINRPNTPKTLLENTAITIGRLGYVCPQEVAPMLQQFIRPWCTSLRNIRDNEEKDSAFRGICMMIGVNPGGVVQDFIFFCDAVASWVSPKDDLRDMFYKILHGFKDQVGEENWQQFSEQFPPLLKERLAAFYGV
Briefly: co-IP; anti-TRN2 or IgG antibodies on extracts of differentiating (D2) C2C12 cells transfected with siCTRL or siTNKS1; protein A/G magnetic beads; washes with 25 mM Tris-HCl pH 8.0, 650 mM NaCl, 0.05% Tween-20; western blot for HuR. Background: In western blotting, separated proteins are transferred to a membrane and probed.

No constants are given. Whether binding was seen depends on the method and setting. Binding seen in cells or lysates may run through a third protein. Some entries that bind do so weakly or less than the wild type.

Consider “GFP-HuR containing a glycine (G) to aspartate (D) mutation at the 224 position (from UniProt Q15717 1-326)”, for which, in experiment [1], the binding result is given as “no binding”.

Turning to “GFP-HuR wild-type (from UniProt Q15717 1-326)”, the binding result in experiment [1] is given as “binds”.

Regarding “Human Antigen R (HuR), endogenous (from UniProt P70372 1-326)”, the binding entry in experiment [2] is on record as “binds”.
